Here are results for 30 sequences from PubChem BioAssay AID1508600 (Functional Genomics Laboratory (NCATS/FGL), 2020).

Out of some 53,000 sequences screened, about 3,700 (7%) were called active.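 Rule for the calls: active = gene knockdowns whose robust z-score for IL-1 alpha signal is at least 2 or at most -2, so actives lie on both sides; inactive = the rest.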 The list shows a part of the results.

The assay can be described thus: Components of the Cytosolic LPS Sensing Pathway: Gene Identification via Genome-wide siRNA Screen.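 Note: robust z of the log signal after scaling to non-targeting control siRNA wells of the plate.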 To be noted: RAW264.7 macrophages, IL-1a HTRF, actives lie on both sides, screened at 100 nM (by protocol), cells primed 5 h with Pam3CSK4 first. The gist of the method: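 Mouse macrophage line RAW264.7 is transfected with siRNA (100 nM final), grown 48h, primed with TLR ligand Pam3CSK4 5 h and given intracellular LipidA 24 h. IL-1a in supernatant is read by HTRF and viability by luminescence.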
For orientation: In TR-FRET formats the signal depends on donor and acceptor labels being close together.
In the case of GGAAAUAUUUUCUCAGCAATT against Pcdhga1, the z-score is inactive: 1.52.
As for GGAUGACAGUGAAUUAGACTT against Retreg1, the figure is inactive: -1.15.
For “GCCUGAUUAUUUGUAAUUGTT against 4632404H12Rik” the value was inactive: -0.5; for CCGUGAUGGUAACAAAUCATT against Phyhipl, inactive: 0.294.
Take GGAGGAGAACCCAUGUAACTT against Tcl1b1: the z-score was inactive: -1.25.
For GCUAGUUAAGAAGCAACAATT against Rpl12 the value was inactive: -0.641.
In the case of GGACUUGACCCUGUCUUUGTT against Ostm1, the z-score was inactive: 0.871.
Take GCGGCAUGGACUUAGUAAATT against Fbxo5: the z-score is active: 3.11.
For GGAAUCGGAACCAGUUCCCTT against Smyd5 the value was inactive: 0.689; for GGAUCUAUGGACGACCUUCTT against Kcnj10, inactive: -0.643.
Turning to GCAGGACAUGUUGUUCCCUTT against Aars2, the z-score is inactive: 1.8.
As to GGAAUAGUGAAGGUACUUUTT against Cer1, the z-score was active: 2.4.
Turning to GCCAGAUUUCCGUCAGAACTT against Scube3, the z-score was inactive: 0.713.
For GGACUUCGAGGACUACAUUTT against Abca3 the value was inactive: 0.283; for GCUAAAUGUUCUUCCAUUATT against Pola1, inactive: -0.186; for GGACGAGGUCCUGUCCUUUTT against Ackr2, inactive: 1.46.
Regarding GGAGACACGGAAGCCUGAATT against Klra4, the z-score was inactive: -0.137.
On to GGUGAAUGGAACAGGUAAGTT against Gas2l2, for which the z-score was inactive: -1.44.
Take CCUAAAUUUGAGGUAACCUTT against Zbtb21: the z-score is inactive: 0.571.
As to GGAGAAUGCCACAACUACATT against Cd320, the z-score is inactive: 1.19.
With GGUUGAAGCCAUAAAGAAATT against Xrcc6, the z-score is inactive: 1.65.
As for GAUAAUUGGUUUACAGACUTT against Vmn1r23, the figure is inactive: -0.223.
As for GGCCCAAUAGACAUAUAGCTT against Trim21, the figure is inactive: -0.408; as for GCGAACACUACUAUCGUUATT against Ipo11, inactive: -0.0465.
For GAGCAUCGACAACCUCUCUTT against Hba-x the value was inactive: 1.73.
In the case of GCGGGUUUAUUGUCUAGAATT against Mfn2, the z-score is inactive: 0.669.
As for GGUGGCUAUGUAAUCUCAGTT against B3gnt8, the figure is inactive: 0.133; as for GCCUAUACUAUAGAAUUACTT against Sgsm2, active: 2.2; as for GCCAACCAGGAUUUUACAATT against Fga, inactive: 0.463.
Regarding CCAAGAGGGCGAUCAAAUGTT against Grtp1, the z-score was inactive: 0.143.
